Assay results from the supplement of paper PMC10849652.
The list shows a part of the results.

Protein sequences, listed by entry. Tags and fused reporters are not part of them. Lines headed by an entry give the natural chain unless they say otherwise; changes in a name come on top.
UniProt Q9NQC3: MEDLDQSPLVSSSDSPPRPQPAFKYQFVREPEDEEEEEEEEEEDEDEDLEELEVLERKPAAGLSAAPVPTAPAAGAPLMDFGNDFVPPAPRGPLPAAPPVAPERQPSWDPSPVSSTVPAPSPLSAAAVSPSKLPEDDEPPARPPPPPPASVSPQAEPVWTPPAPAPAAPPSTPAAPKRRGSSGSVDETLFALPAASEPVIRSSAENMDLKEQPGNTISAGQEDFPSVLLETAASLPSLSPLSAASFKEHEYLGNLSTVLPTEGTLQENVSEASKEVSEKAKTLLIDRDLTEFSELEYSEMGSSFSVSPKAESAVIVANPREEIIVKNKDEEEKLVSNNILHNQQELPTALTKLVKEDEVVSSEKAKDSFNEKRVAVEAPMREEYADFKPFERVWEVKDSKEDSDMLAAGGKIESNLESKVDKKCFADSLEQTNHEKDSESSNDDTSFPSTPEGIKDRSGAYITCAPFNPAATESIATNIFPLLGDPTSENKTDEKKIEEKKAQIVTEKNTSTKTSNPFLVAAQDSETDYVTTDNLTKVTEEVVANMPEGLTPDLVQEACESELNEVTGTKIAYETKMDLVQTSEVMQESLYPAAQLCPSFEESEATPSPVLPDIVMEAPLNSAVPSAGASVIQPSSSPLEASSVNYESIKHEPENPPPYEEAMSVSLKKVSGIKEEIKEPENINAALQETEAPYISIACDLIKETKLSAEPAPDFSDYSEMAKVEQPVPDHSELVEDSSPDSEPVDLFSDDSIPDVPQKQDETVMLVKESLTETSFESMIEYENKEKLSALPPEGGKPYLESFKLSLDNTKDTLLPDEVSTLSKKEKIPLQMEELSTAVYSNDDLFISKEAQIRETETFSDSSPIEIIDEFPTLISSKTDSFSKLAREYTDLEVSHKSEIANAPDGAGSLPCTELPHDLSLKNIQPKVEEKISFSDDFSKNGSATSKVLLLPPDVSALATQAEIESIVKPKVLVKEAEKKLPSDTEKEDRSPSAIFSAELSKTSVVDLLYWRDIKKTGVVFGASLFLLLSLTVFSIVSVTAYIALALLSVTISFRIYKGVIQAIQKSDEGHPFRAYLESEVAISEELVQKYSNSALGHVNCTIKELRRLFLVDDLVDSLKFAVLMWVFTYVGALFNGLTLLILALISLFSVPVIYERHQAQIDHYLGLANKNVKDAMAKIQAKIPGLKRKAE
UniProt O95969: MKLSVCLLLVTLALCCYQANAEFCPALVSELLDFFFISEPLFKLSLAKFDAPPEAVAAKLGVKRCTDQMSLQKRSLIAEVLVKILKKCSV
UniProt Q7L099: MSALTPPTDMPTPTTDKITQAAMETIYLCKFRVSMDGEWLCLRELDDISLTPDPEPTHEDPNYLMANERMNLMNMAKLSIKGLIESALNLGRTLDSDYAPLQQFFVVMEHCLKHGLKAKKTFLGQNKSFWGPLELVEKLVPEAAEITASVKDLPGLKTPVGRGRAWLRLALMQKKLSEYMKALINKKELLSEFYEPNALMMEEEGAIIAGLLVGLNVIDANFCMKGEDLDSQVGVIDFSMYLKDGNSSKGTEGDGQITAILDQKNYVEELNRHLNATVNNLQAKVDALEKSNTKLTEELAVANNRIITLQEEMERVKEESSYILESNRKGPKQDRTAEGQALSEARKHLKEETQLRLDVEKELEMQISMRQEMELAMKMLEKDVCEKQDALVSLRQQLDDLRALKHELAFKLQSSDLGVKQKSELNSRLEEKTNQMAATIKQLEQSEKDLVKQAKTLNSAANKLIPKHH
UniProt Q8N9R8: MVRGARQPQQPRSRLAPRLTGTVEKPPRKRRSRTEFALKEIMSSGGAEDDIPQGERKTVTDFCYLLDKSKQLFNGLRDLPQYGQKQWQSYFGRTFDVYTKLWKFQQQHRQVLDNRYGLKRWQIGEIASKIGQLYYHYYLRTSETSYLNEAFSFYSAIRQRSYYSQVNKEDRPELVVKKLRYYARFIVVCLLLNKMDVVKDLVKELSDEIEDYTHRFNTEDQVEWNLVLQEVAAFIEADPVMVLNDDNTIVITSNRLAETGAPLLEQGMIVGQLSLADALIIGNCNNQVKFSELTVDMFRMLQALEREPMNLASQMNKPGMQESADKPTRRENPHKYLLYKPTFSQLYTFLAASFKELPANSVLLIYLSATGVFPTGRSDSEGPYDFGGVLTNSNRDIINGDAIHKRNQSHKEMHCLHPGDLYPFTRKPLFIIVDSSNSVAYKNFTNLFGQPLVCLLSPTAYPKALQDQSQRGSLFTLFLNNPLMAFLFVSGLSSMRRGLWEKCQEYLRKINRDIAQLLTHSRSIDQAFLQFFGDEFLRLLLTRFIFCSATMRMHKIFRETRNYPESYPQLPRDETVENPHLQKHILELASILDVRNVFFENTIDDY
UniProt Q9UIL1: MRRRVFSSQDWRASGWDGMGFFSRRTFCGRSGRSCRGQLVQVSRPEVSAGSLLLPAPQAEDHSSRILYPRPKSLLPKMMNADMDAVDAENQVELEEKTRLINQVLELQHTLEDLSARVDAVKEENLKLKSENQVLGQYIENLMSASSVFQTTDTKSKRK
UniProt Q92503: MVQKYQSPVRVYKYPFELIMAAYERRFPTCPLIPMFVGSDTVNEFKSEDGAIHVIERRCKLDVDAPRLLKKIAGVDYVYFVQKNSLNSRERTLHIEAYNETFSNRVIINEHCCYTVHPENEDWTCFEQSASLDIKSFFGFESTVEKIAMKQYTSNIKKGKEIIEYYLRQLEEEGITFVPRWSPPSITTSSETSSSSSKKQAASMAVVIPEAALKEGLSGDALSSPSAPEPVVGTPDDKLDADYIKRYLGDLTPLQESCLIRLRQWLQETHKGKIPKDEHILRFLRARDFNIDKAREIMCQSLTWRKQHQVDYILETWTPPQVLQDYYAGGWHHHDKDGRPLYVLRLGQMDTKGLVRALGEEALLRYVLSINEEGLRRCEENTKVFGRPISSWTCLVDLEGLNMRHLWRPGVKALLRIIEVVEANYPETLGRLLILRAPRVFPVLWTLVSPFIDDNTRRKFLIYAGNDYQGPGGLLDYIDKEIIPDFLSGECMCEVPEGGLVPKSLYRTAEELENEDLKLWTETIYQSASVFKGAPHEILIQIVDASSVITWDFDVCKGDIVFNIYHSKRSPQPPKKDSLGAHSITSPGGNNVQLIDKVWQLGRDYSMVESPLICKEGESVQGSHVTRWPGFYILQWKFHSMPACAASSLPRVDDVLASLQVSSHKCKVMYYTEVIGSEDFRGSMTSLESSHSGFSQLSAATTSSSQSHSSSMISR
UniProt O75556: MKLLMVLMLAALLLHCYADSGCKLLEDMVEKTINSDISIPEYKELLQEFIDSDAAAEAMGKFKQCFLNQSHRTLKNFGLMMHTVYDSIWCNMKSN
UniProt O75056, whole entry, looked up: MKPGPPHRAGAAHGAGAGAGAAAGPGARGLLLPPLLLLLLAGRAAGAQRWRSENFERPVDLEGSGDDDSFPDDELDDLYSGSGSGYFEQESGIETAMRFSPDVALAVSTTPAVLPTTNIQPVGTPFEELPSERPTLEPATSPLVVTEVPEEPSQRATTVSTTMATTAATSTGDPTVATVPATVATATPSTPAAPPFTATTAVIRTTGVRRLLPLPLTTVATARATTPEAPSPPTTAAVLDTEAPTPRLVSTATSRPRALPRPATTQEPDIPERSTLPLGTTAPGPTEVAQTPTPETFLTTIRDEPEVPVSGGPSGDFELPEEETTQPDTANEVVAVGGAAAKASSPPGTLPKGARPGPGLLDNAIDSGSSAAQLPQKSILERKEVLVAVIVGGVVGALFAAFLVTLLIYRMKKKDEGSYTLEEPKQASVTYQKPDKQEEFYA
UniProt O00560: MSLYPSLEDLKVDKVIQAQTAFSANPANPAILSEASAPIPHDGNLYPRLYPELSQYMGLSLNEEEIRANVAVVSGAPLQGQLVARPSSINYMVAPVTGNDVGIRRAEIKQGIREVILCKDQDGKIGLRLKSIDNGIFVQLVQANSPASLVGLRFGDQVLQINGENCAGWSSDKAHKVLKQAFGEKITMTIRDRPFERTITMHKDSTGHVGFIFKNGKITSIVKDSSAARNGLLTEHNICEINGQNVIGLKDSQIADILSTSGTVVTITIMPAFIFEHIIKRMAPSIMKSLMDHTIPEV
UniProt Q7L3V2: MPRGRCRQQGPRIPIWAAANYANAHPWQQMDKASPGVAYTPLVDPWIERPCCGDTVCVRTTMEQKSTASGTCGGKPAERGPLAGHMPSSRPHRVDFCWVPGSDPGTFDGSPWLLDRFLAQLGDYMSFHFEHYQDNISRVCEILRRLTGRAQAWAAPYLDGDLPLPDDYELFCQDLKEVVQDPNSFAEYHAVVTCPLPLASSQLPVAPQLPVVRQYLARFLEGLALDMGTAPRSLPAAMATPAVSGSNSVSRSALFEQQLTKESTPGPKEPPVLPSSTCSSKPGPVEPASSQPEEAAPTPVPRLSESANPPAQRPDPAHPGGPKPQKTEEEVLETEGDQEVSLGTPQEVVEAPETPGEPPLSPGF
UniProt Q5PRF9: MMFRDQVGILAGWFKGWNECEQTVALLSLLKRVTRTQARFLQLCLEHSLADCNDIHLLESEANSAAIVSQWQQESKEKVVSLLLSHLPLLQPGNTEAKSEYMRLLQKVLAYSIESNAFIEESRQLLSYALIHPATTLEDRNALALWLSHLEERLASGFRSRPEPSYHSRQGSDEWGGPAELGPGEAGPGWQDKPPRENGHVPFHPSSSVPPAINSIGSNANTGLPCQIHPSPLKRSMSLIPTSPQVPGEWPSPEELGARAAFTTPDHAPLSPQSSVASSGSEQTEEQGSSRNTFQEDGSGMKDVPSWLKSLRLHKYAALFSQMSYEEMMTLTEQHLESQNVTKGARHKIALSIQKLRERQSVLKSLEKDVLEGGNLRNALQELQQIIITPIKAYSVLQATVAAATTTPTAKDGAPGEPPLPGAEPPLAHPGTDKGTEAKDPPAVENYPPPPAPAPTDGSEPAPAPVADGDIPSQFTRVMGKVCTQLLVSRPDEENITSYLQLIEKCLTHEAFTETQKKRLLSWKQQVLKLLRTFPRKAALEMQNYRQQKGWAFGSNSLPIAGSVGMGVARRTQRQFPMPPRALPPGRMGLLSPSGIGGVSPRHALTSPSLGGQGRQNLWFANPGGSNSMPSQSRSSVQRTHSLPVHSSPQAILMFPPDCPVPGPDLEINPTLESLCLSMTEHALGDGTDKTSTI
UniProt P28702: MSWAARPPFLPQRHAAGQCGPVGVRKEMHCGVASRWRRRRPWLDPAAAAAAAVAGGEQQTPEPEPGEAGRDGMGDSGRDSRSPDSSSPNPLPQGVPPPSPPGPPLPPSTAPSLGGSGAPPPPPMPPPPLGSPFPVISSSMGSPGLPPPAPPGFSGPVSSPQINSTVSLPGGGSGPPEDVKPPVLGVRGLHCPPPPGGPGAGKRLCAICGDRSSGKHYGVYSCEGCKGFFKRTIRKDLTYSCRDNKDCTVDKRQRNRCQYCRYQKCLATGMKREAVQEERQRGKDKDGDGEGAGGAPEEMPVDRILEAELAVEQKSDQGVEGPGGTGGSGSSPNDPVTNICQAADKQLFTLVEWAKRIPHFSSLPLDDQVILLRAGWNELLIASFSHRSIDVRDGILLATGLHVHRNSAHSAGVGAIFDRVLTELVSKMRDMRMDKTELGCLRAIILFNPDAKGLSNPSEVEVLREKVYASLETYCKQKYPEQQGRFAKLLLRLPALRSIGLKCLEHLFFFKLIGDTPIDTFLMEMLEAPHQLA
UniProt Q99470: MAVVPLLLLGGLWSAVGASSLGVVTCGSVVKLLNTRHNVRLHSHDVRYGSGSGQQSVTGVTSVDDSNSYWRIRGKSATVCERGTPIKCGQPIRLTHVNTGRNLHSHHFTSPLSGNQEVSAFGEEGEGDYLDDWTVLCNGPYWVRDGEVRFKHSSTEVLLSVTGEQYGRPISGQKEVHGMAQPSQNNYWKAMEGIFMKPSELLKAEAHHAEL
UniProt Q96NL6: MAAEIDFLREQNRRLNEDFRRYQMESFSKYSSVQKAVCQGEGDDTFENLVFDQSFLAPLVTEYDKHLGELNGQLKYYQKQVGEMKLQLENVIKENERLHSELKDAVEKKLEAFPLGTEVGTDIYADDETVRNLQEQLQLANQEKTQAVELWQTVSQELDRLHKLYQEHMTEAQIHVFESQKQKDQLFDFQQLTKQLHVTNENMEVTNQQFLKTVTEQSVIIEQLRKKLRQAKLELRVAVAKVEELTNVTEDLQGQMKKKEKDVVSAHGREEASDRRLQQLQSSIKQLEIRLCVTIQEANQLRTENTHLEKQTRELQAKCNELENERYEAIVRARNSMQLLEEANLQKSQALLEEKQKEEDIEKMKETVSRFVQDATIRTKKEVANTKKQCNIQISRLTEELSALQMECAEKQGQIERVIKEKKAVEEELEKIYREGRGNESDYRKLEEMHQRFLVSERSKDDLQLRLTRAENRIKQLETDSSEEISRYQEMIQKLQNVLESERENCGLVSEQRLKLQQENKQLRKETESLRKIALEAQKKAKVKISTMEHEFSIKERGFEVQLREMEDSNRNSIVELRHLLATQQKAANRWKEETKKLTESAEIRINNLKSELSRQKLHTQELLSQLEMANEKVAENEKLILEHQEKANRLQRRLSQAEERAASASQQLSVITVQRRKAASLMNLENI

Tests used:
Assay in all cases: log2 fold change, soluble protein after heating vs DMSO (PISA); higher = thermal stabilisation; K562 cells, 10 uM, 30 min; active = over 0.2 and 3.5 SD of the protein, either way, in both replicates (recomputed)
erlotinib = compound: C#Cc1cccc(Nc2ncnc3cc(OCCOC)c(OCCOC)cc23)c1 [erlotinib]
Outline: (§1)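 K562 cells at 2×10^6 cells/mL were exposed to 10 μM compound for 30 min, then aliquots were heated for 3 min across 48°C-58°C, pooled, and extracted in PBS containing 0.5% NP-40 at 4°C. The supernatant after 21,000xg for 90 min was taken as soluble protein and measured by TMTpro 16plex LC-MS/MS with channel sums equalised. Thermal stability is reported relative to control samples, with values from duplicates. Fold changes are given on a log2 scale.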

[1] = compound: C/C(=N\NC(=O)C1=CC(=CC=C1)S(=O)(=O)N2CCOCC2)/C3=C(C=CC(=C3)Cl)O
Outline: as §1

[2] = compound: C1=CC(=C(C=C1Cl)C2=NC3=NC=CN=C3C(=N2)NC4=CC=NC=C4)F
Outline: as §1

[3] = compound: C1=CC(=CC=C1C2=NC3=C(N2)C=C(C=C3)C(=O)N)OC4=CC=C(C=C4)Cl
Outline: as §1

[4] = compound: C1=CC2=C(C=CC(=C2)/C=C\3/C(=O)NC(=NCC4=CC=CS4)S3)N=C1
Outline: as §1

[5] = compound: C1=CC2=NC=CN=C2C=C1/C=C/3\C(=O)NC(=O)S3
Outline: as §1

[6] = compound: C1=CC=C(C=C1)C2=NC(=C(N2)C3=CC=NC=C3)C4=CC(=C(C=C4)Cl)O
Outline: as §1

[7] = compound: C1=CC=C2C(=C1)C3=NNC4=CC=CC(=C43)C2=O
Outline: as §1

[8] = compound: C1CCN(C1)C(=O)NC2=CC=CC(=C2)NC3=NC=C(C(=N3)NCCC4=CN=CN4)Br
Outline: as §1

[9] = compound: C1CN(CCC1(CC2=CC=C(C=C2)Cl)N)C3=NC=NC4=C3C=CN4
Outline: as §1

Measured: log2 fold change

SCO1 (UniProt O75880)
inactive: erlotinib 0.01 | [1] 0.179 | [2] -0.014 | [3] 0.054 | [4] -0.052 | [5] 0.065 | [6] -0.009 | [7] 0.059 | [8] 0.048 | [9] -0.011

RTN4 isoform 2 (UniProt Q9NQC3)
inactive: erlotinib 0.075 | [1] -0.042 | [2] -0.03 | [3] 0.032 | [4] 0.026 | [5] 0.021 | [6] -0.026 | [7] -0.025 | [8] 0.041 | [9] 0.067

SCGB1D2 (UniProt O95969)
inactive: erlotinib 0.526 | [1] -0.335 | [2] -0.078 | [3] -0.49 | [4] -0.092 | [5] -0.247 | [6] 0.639 | [7] -0.707 | [8] -0.487 | [9] -0.273

RUFY3 isoform 3 (UniProt Q7L099)
inactive: erlotinib 0.019 | [1] 0.012 | [3] -0.03 | [4] -0.028 | [6] 0.011 | [7] 0.065 | [8] -0.075 | [9] -0.07

SCAMP2 (UniProt H3BUB6)
inactive: erlotinib 0.182 | [1] -0.331 | [2] -0.143 | [3] 0.039 | [4] 0.372 | [5] -0.163 | [6] -0.281 | [7] -0.143 | [8] 0.218 | [9] -0.003

RTN4IP1 (UniProt Q8WWV3)
inactive: erlotinib 0.016 | [1] 0 | [2] 0.041 | [3] 0.066 | [4] 0.048 | [5] -0.08 | [6] 0.014 | [7] 0.027 | [8] -0.064 | [9] 0.074

SCAI isoform 2 (UniProt Q8N9R8)
inactive: erlotinib -0.094 | [1] 0.034 | [2] -0.076 | [3] 0.148 | [4] -0.003 | [6] -0.07 | [7] -0.056

RTN4 (UniProt Q9NQC3)
inactive: erlotinib -0.036 | [1] -0.007 | [2] 0.019 | [3] 0.024 | [4] -0.023 | [5] 0.063 | [6] -0.024 | [7] -0.018 | [8] 0.004 | [9] 0.059

SARAF (UniProt Q96BY9)
inactive: [1] -0.059 | [2] -0.022 | [4] -0.158 | [5] 0.225 | [7] 0.054 | [8] 0.029 | [9] 0.022

SCOC (UniProt Q9UIL1)
inactive: [6] 0.067

SEC24B isoform 3 (UniProt O95487)
inactive: [1] 0.132 | [2] -0.223 | [4] -0.044 | [5] 0.076 | [6] 0.047 | [7] 0.033 | [8] -0.166 | [9] 0.075

SAFB2 (UniProt K7EQU4)
inactive: [2] -0.172 | [5] -0.277

RRP1B (UniProt Q14684)
inactive: erlotinib 0.357 | [2] -0.151 | [3] -0.17 | [8] 0.125 | [9] -0.089

RTL8C (UniProt A6ZKI3)
inactive: [2] -0.023 | [6] 0.162

SEC14L1 isoform 2 (UniProt Q92503)
inactive: erlotinib -0.053 | [2] 0.012 | [3] 0.026 | [8] 0.087 | [9] 0.025

SCAMP3 isoform 2 (UniProt O14828)
inactive: [2] 0.126 | [5] 0.002 | [6] -0.128

SAV1 (UniProt Q9H4B6)
inactive: [8] -0.02 | [9] -0.066

SCGB2A1 (UniProt O75556)
inactive: [5] -0.331

RXYLT1 (UniProt Q9Y2B1)
inactive: erlotinib -0.013 | [3] -0.05

RTN4, A0A0U1RQR6
inactive: [2] -0.105

SDC3 (UniProt O75056)
inactive: [1] -0.135 | [2] -0.015 | [4] 0.05 | [7] -0.157 | [8] -0.139 | [9] 0.203

S100A10 (UniProt P60903)
inactive: [1] 0.122 | [4] 0.194 | [5] 0.052 | [7] -0.096 | [8] -0.042 | [9] -0.013

S100A1 (UniProt P23297)
inactive: erlotinib -0.328 | [2] 0.038 | [3] 0.135 | [5] 0.067 | [6] 0.155

S100A16 (UniProt Q96FQ6)
inactive: erlotinib -0.018 | [2] 0.222 | [3] -0.116 | [5] -0.022 | [8] 0.098 | [9] -0.3

SAP130 isoform 3 (UniProt Q9H0E3)
inactive: [1] 0.042 | [4] 0.109 | [6] 0.186 | [7] -0.414

Quoted from above (9 entries):
SEC14L1 isoform 2 (UniProt Q92503)
inactive: erlotinib -0.053 | [2] 0.012 | [3] 0.026 | [8] 0.087 | [9] 0.025

SCAMP3 isoform 2 (UniProt O14828)
inactive: [2] 0.126 | [5] 0.002 | [6] -0.128

SAV1 (UniProt Q9H4B6)
inactive: [8] -0.02 | [9] -0.066

SCGB2A1 (UniProt O75556)
inactive: [5] -0.331

RXYLT1 (UniProt Q9Y2B1)
inactive: erlotinib -0.013 | [3] -0.05

RTN4, A0A0U1RQR6
inactive: [2] -0.105

SDC3 (UniProt O75056)
inactive: [1] -0.135 | [2] -0.015 | [4] 0.05 | [7] -0.157 | [8] -0.139 | [9] 0.203

S100A10 (UniProt P60903)
inactive: [1] 0.122 | [4] 0.194 | [5] 0.052 | [7] -0.096 | [8] -0.042 | [9] -0.013

S100A1 (UniProt P23297)
inactive: erlotinib -0.328 | [2] 0.038 | [3] 0.135 | [5] 0.067 | [6] 0.155

The results go on.

RUBCN (UniProt Q92622)
inactive: [6] 0.122

SDCBP isoform 2 (UniProt O00560)
inactive: erlotinib 0.157 | [2] 0.007 | [3] 0.159 | [5] 0.009 | [6] -0.299 | [8] 0.249 | [9] 0.096

RTL10 (UniProt Q7L3V2)
inactive: [1] 0.05 | [2] -0.128 | [4] 0.144 | [6] 0.028 | [7] 0.071 | [8] 0.022 | [9] -0.193

SCGB2A2 (UniProt Q13296)
inactive: [1] 0.031 | [2] -0.144 | [4] -0.016 | [5] -0.199 | [7] -0.699 | [8] -0.393 | [9] -0.542

SAMD4B (UniProt Q5PRF9)
inactive: erlotinib -0.117 | [2] -0.17 | [3] -0.13 | [5] 0.124 | [6] -0.135 | [8] 0.037 | [9] 0.045

SAE1 (UniProt M0R286)
inactive: erlotinib 0.053 | [2] -0.146 | [3] -0.014 | [5] -0.007 | [6] -0.314

RXRG (UniProt P48443)
inactive: [6] 0.113 | [8] 0.21 | [9] 0.205

RXRB isoform 3 (UniProt P28702)
inactive: [2] 0.033 | [5] 0.117

SDF2 (UniProt Q99470)
inactive: erlotinib 0.046 | [2] -0.233 | [3] -0.096 | [5] -0.046 | [8] 0.043 | [9] 0.173

SCRIB isoform 3 (UniProt Q14160)
inactive: erlotinib 0.077 | [3] -0.054 | [6] -0.01 | [8] 0.022 | [9] 0.001

SAMD4A (UniProt Q9UPU9)
inactive: erlotinib 0.759 | [2] -0.079 | [3] -0.019 | [8] 0.535 | [9] -0.438

SBF2 (UniProt Q86WG5)
inactive: [2] 0.17 | [6] 0.329

SCN4A (UniProt P35499)
inactive: [1] -0.196 | [4] 0.28 | [7] -0.076

SCLT1 (UniProt Q96NL6)
inactive: [5] -0.002 | [8] -0.088 | [9] 0.051

SDAD1 (UniProt Q9NVU7)
inactive: [1] 0.045 | [2] -0.091 | [4] 0.092 | [5] 0.132 | [6] 0.065 | [7] -0.139

SBSN (UniProt Q6UWP8)
inactive: [1] 0.009 | [4] 0.511 | [7] -0.873
